Structures can show the parent of a compound that is named as a salt. The list shows a part of the results. Most values lie at the level of the controls, where differences are scatter.

What all share (details): 5 µM; treatment: days 7-14 after plating, readout day 21
The test system of test [1] is hPSC-derived cortical neurons (WA09). Description: nucleus area z-score vs screen plate; higher = larger nuclei (more mature).
Test [2] shares this test system. The test is described as follows: total neurite length per nucleus (MAP2) z-score; higher = more neurite growth.
Test [3] has the same test system. Description: nucleus roundness z-score vs screen plate; higher = rounder nuclei (more mature).
The test system is the same in test [4]. Description: KCl-induced FOS+/EGR-1+ double-positive nuclei fraction z-score (KCl minus unstimulated); higher = stronger activity-induced IEG response.

`CCCCOc1ccc(CC(=O)NO)cc1` [Bufexamac] came in with a nucleus area z-score in test [1] of -0.318. The “total neurite length per nucleus (z-score)” value in test [2] was 0.719. This molecule displayed a nucleus roundness z-score in test [3] of 0.582. In test [4], the “KCl-induced FOS+/EGR-1+ double-positive nuclei fraction z-score” value amounted to 0.973.

In the case of `Clc1cccc(Cl)c1NC1=NCCN1` [Clonidine HCl], the nucleus area z-score in test [1] came out at 1.5. The “total neurite length per nucleus (z-score)” value in test [2] was determined as 1.13. The molecule further showed a nucleus roundness z-score in test [3] of 1.02. The “KCl-induced FOS+/EGR-1+ double-positive nuclei fraction z-score” value in test [4] turned out to be 4.43.

The molecule `CNC(=O)c1ccc2cc([C@@]3(O)CCn4cncc43)ccc2c1` [TAK-700 (Orteronel)] returned a nucleus area z-score in test [1] of -0.248. Moreover, in test [2], the “total neurite length per nucleus (z-score)” value is -0.233. The nucleus roundness z-score in test [3] is -0.635. In addition, in test [4], the “KCl-induced FOS+/EGR-1+ double-positive nuclei fraction z-score” value is -0.258.

In the case of `O=C(O)Cc1ccccc1Nc1c(Cl)cccc1Cl` [Diclofenac Sodium], the nucleus area z-score in test [1] was -0.115. Also, in test [2], the “total neurite length per nucleus (z-score)” value was 0.779. In test [3], this molecule displayed a nucleus roundness z-score of 0.528. Also, the “KCl-induced FOS+/EGR-1+ double-positive nuclei fraction z-score” value in test [4] came out at 0.241.

Turning to `CCN(CC)CCOC(=O)c1ccc(N)cc1Cl` [Chloroprocaine HCl], in test [1], the nucleus area z-score was found to be 2.55. The “total neurite length per nucleus (z-score)” value in test [2] was -1.07. The molecule also came in with a nucleus roundness z-score in test [3] of -0.498. The “KCl-induced FOS+/EGR-1+ double-positive nuclei fraction z-score” value in test [4] was 0.642.

In turn, `Clc1ccc(NN=C(c2ccccc2)c2ccccn2)nc1` yielded a nucleus area z-score in test [1] of -9.61. Also, in test [2], the “total neurite length per nucleus (z-score)” value was -2.59. Besides, in test [3], the nucleus roundness z-score was -5.24. Also, in test [4], the “KCl-induced FOS+/EGR-1+ double-positive nuclei fraction z-score” value amounted to 1.12.

`CCCCOc1ccc(C(=O)Nc2ccc(F)cc2F)cc1` yielded a nucleus area z-score in test [1] of 0.264. Besides, the “total neurite length per nucleus (z-score)” value in test [2] amounted to 0.381. Further, in test [3], the nucleus roundness z-score was determined as 0.237. For the same molecule, the “KCl-induced FOS+/EGR-1+ double-positive nuclei fraction z-score” value in test [4] was -0.256.

Take `COc1ccc(Cl)cc1NC(=O)Nc1cc(C)nc2ccccc12`: the nucleus area z-score in test [1] was -0.436. The “total neurite length per nucleus (z-score)” value in test [2] amounted to 0.681. Moreover, the nucleus roundness z-score in test [3] was -0.0493. Besides, the “KCl-induced FOS+/EGR-1+ double-positive nuclei fraction z-score” value in test [4] is -0.152.

The record behind these values is the supplement of paper PMC11348887.
